From patent US20240335371A1, “MAGNESIUM SULFATE AND FORSKOLIN FOR TREATMENT OF SEXUAL DISORDERS AND BENIGN PROSTATIC HYPERPLASIA” (State-of-the-Art Technologies, Inc., priority 2023, published 2024)
Structures can show the parent of a compound that is named as a salt. Where two headings read alike, the source gives them in different places. For at least one compound, name, drawing or mass did not settle the structure. Some of these results come from one statement about several compounds together.

Legend:
[1] = tested on: isolated human corpus cavernosum; details: cited from earlier work
[2] = tested on: intraocular pressure; details: topical application; humans; cited from earlier work
[3] = tested on: penis or female genitalia; assay: Topical or transdermal administration of magnesium sulfate or forskolin to male and female subjects
Text: The composition is generally applied generously to the penis and massaged thoroughly. In females, the composition may be applied to the female genitals and massaged. In various embodiments, the composition may also be applied on a penis or sex toy or suppository inserted into the vagina or ano-rectal region, or as a condom lubricant, penile lubricant, vaginal lubricant or anal lubricant.

[4] = tested on: intraocular pressure; details: topical application; animals; cited from earlier work

Which direct relaxant effect [1] does the source give for `CCCc1nn(C)c2c(=O)[nH]c(-c3cc(S(=O)(=O)N4CCN(C)CC4)ccc3OCC)nc12` [sildenafil citrate] here?
Its direct relaxant effect is “no direct relaxant effect”.

What does the source list for `C=C[C@@]1(C)CC(=O)[C@]2(O)[C@@]3(C)[C@@H](O)CCC(C)(C)[C@@H]3[C@H](O)[C@H](OC(C)=O)[C@@]2(C)O1` [forskolin, 7beta-acetoxy-8, 13-epoxy-1a, 6β, 9a-trihydroxy-labd-14-en-11-one]?
reduction of intraocular pressure [2]: capable of reducing TOP; onset of erectile effect ([3]; topical or transdermal administration to the penis or female genitalia): 2 to 5 min; testosterone and libido ([3]; topical or transdermal administration, males and females): increased testosterone with increased libido in both males and females lasting for several weeks; increase in penile length, size and turgidity versus control gel (KY jelly) ([3]; topical or transdermal application to the penis): significantly exceeds that obtained by topical or transdermal application of a control gel; reduction of intraocular pressure [4]: capable of reducing TOP
